This test concerns the target glycoprotein 5 (GP5) of PRRSV strain JXwn06, Flag-tagged (PRRSV strain JXwn06). Description: co-IP; HEK293T cells cotransfected with Flag-tagged GP5 and HA-tagged Nat9 constructs, harvested 24 h posttransfection; RIPA lysis; anti-Flag beads at 4°C overnight; Western blotting.

No constants are given. Whether binding was seen depends on the method and setting. In cells and extracts the contact can be indirect. A result given as binding can be weak or reduced; the word gives no strength. Where a sequence is shown, tags or fusion partners need not be part of it.

The source of these data is publication PMC9927549.

B1: porcine Nat9 truncation, aa 33-212, HA-tagged (domain or fragment, UniProt A0A8W4F8U4 33-212)
chain: YHEWMKSEELQRLTASEPLTLEQEYAMQQSWREDADKCTFIVLAAEKWQGQPGPSEESCMAGDVNLFLTDLGDPSLGEIEVMIAEPSCRGQGLGTEAVLMMMAYGVTKLGLTTFEAKIGQENEPSIRMFRRLHFEQVAVSSVFQEVTLRLTMSEPERQWLLEQTSHMQEKPYRDGSSEPH
For B1, the binding entry was “binds”.
